Assay [1] concerns the target PD-L1 (his-tagged protein). The assay is described as follows: specificity ELISA, HRP anti-HA detection (FIGS. 9A-9B). Background: An ELISA detects its analyte on a solid surface through an enzyme-linked reagent.
Assay [2] concerns the target RBD (his-tagged protein). The description is as above.
Assay [3] has as its target PD-L1 (his-tagged protein). Put plainly: specificity ELISA, HRP anti-HA detection (FIG. 9A).
In assay [4] the target is RBD (his-tagged protein). Put plainly: specificity ELISA, HRP anti-HA detection (FIG. 9A).
For assay [5], the target named is PD-L1 (his-tagged protein). The assay is described as follows: specificity ELISA, HRP anti-HA detection (FIG. 9B).
Assay [6] addresses RBD (his-tagged protein). Put plainly: specificity ELISA, HRP anti-HA detection (FIG. 9B).

No constants are given. Whether binding was seen depends on the method and setting.

B1: 5-95 (VHH)
VHH: QVQLQESGGGLVQPGGSLRLSCAASGFTFSTYSMTWVRQAPGKGLEWVSDINSGGSVAYYTDSVKGRFTASRDNAKNTLYLQMNSLKPEDTAVYYCYEGGYHGGSPRGHGTQVTVSS
notes: not shown: one his tag and one HA tag at the C-terminus
Turning to B1, the binding result (in assay [1]; in the assay with RBD (his-tagged protein) [2]) was “no binding (tested: 3 µg/ml)” each time.

B2: 5-26 (VHH)
VHH: QVQLQESGGGLVQPGGSLRLSCAASGFTLDLYAIGWFRQAPGKERERVSCISSGGSTNYAESVKGRFTISRDNGKNTVYLQMNSLKPEDTAVYYCVRSVPSCGSYYFPPRNMNYWGKGTQVTVSS
notes: Alpaca VHH from the phage library; not shown: one his tag and one HA tag at the C-terminus
Consider B2, for which the binding result (in assay [3]; with RBD (his-tagged protein) [4]) was “no binding (tested: 3 µg/ml)” throughout.

B3: 5-09 (VHH)
VHH: QVQLQESGGGLVQPGGSLRLSCAASGFTLDDYAIGWFRQAPGKERERISCISSGGNTNYADSVKGRFTLSRDNAKNTVYLQMYSLKPEDTAVYYCTASIPSCASYYFPPRNMDYWGKGTQVTVSS
notes: also called 5-9; not shown: one his tag and one HA tag at the C-terminus
As for B3, the binding entry (in assay [1]; in the assay with RBD (his-tagged protein) [2]) was “no binding (tested: 3 µg/ml)” each time.

B4: 4-92 (VHH)
VHH: QVQLQESGGGLVQPGGSLRLSCAASGFAFSSRAMSWVRQAPGKGLEWVSDINYDGAWTYYADSVKGRFTISRDNAKNTLYLQMNSLKPEDTAVYFCTDPWSIDGWGQGTQVTVSS
notes: as for B2
B4: the binding entry (in assay [5]; in the assay with RBD (his-tagged protein) [6]) was “no binding (tested: 3 µg/ml)” in each case.

Values taken from patent US20260217821A1 (SPH BIOTHERAPEUTICS SHANGHAI, published 2026).
